Reference: paper doi:10.1101/663153 (bioRxiv, 2019)
Read-outs that look alike come from different tables or passages of the source. No constants are given. Whether binding was seen depends on the method and setting. In cells and extracts the contact can be indirect. Some entries that bind do so weakly or less than the wild type.

Columns and labels:
Test in all cases: FRET or BRET
[1] = target: CysLTR2-GFP10-1D4 wt (human) (UniProt Q9NS75)
[2] = target: CysLTR2-GFP10-1D4 wt (human) (UniProt Q9NS75); remark: listed apart in the source
[3] = target: CysLTR2-GFP10-1D4 wt (human) (UniProt Q9NS75); remark: listed apart in the source
CysLTR2-GFP10-1D4 L129Q = target: T1, CysLTR2-GFP10-1D4 L129Q (human, UniProt Q9NS75 1-346, L129Q)
T1 sequence (looked up): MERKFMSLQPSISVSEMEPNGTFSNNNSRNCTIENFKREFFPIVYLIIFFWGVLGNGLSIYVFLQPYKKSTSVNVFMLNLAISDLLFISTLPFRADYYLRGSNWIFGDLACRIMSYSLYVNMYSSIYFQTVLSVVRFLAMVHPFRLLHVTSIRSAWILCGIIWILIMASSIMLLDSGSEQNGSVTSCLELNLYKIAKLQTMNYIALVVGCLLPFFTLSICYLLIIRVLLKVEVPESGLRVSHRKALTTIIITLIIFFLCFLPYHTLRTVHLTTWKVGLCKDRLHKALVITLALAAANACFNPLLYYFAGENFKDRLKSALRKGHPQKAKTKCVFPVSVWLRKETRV

Question: With “β-Arrestin2-RLuc3 (from UniProt P32121 1-409)” as the molecule, how does the binding [1] read?
Answer: Its binding is “binds”.

Question: And the binding [2]?
Answer: The binding was “binds”.

B1: β-Arrestin1-RLuc3 (natural protein, UniProt P49407 1-418, looked up)
chain: MGDKGTRVFKKASPNGKLTVYLGKRDFVDHIDLVDPVDGVVLVDPEYLKERRVYVTLTCAFRYGREDLDVLGLTFRKDLFVANVQSFPPAPEDKKPLTRLQERLIKKLGEHAYPFTFEIPPNLPCSVTLQPGPEDTGKACGVDYEVKAFCAENLEEKIHKRNSVRLVIRKVQYAPERPGPQPTAETTRQFLMSDKPLHLEASLDKEIYYHGEPISVNVHVTNNTNKTVKKIKISVRQYADICLFNTAQYKCPVAMEEADDTVAPSSTFCKVYTLTPFLANNREKRGLALDGKLKHEDTNLASSTLLREGANREILGIIVSYKVKVKLVVSRGGLLGDLASSDVAVELPFTLMHPKPKEEPPHREVPENETPVDTNLIELDTNDDDIVFEDFARQRLKGMKDDKEEEEDGTGSPQLNNR
Question: For B1, which binding [1] is on record?
Answer: The binding was “binds”.

Question: And the binding [3]?
Answer: The binding was “binds”.

Question: And the binding [2]?
Answer: The binding was “binds”.

Question: What about the binding (CysLTR2-GFP10-1D4 L129Q) of the same molecule?
Answer: Its binding is “binds weakly”.
